# According to PubChem BioAssay AID758 (NMMLSC, 2007):
# The campaign covered roughly 190,000 compounds. About 110 (0.058%) were called active. Inconclusive means that the source gave no clear call. Such entries were picked first, then a sample of the others.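 Rule for the calls: active = fluorescent GTP binding to Rab7 beads changed by at least 20 points from the 100% baseline, either direction, mostly lower; inconclusive = compound itself probably fluorescent, or too few beads counted; inactive = the rest.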
# System: Rab7 GTPase wild type (dog), Bodipy-FL-GTP binding
# Assay: modulators of GTP binding to Rab7, primary screen, biochemical, wildtype, multiplex bead flow cytometry (AID 758);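 note: median green fluorescence of bound Bodipy-FL-GTP per Rab7 bead population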
# Conditions: GST-Rab7 beads, fluorescent GTP binding, at 10 µM, actives lie on both sides, untreated = 100%, excess cold GTP = 0%
row,SMILES,GTP binding activity (percent of control)
1,CCN(CC)c1ccc2cc(-c3nc(-c4ccc(OC)cc4)cs3)c(=O)oc2c1,inconclusive: 365%
2,Cc1ccc2[nH]c(CCN(C)C)c(CC#N)c2c1,inconclusive: 104%
3,CCNC(=O)CSc1nc2ccccc2c(=O)n1-c1cc(OC)ccc1OC,inactive: 101%
4,CC1=C(C)CC(C(=O)NNC(=O)c2csc3c2CCC(C(C)(C)C)C3)C(C(=O)O)C1 (stereo not given),inconclusive: 95%
5,O=c1c2ccc([N+](=O)[O-])cc2ncn1Cc1ccccc1C(F)(F)F,inconclusive: 85%
6,Cc1ccc(S(=O)(=O)N2CCCCC2)cc1NC(=O)COC(=O)c1ccc(O)cc1,inactive: 102%
7,COc1cccc(C(=O)Nc2ccc(-c3nc4ccccc4o3)c(O)c2)c1,inconclusive: 94%
8,COc1ccc2c(c1)nc(SCC(=O)c1ccc(Br)s1)n2C,inactive: 103%
9,CC(=O)N1CCCC(C(=O)c2ccc(Oc3ccccc3)cc2)C1 (stereo not given),inactive: 102%
10,CCOC(=O)CNS(=O)(=O)c1ccc(C(=O)O)cc1,inconclusive: 100%
11,N#CCCN(C(=O)COc1ccc(Cl)cc1Cl)c1ccccc1,inactive: 99%
12,CCN(CC(=O)Nc1ccc(Cl)c(S(=O)(=O)N(C)C)c1)CC(=O)NC(C)C,inconclusive: 96%
13,COc1cnn(-c2ccc(Br)cc2)c(=O)c1SCc1ccccc1,inconclusive: 105%
14,COc1ccc(C)cc1-n1nnnc1SCc1cc(=O)n2cc(C)ccc2n1,inconclusive: 99%
15,COc1cccc(/C=N/Nc2nc3ccccc3n3cnnc23)c1,inconclusive: 87%
16,O=C(CSc1cnc2ccccc2n1)NC1CCCC1,inconclusive: 106%
17,CCOC(=O)c1nn(-c2ccc(C)cc2)c(=O)c2c(N)scc12,inconclusive: 97%
18,COC(=O)c1cc(NCc2c(F)cccc2Cl)ccc1N1CCOCC1,inconclusive: 107%
19,O=C(O)CSc1ncccc1C(=O)O,inactive: 98%
20,CC(=O)Nc1ccc(N2CCCCC2)cc1,inconclusive: 96%

row,SMILES,GTP binding activity (percent of control)
1,O=C(O)CCCCCn1c(SCc2cc(=O)n3cc(Cl)ccc3n2)nc2ccsc2c1=O,inconclusive: 114%
2,O=C(/C=C/c1cccc(Br)c1)N1CCN(c2cccc(C(F)(F)F)c2)CC1,inconclusive: 92%
3,CC(=O)Nc1ccc(NC(=O)c2ccccc2CC[N+](=O)[O-])cc1,inconclusive: 102%
4,COc1ccccc1N(C(C)=O)c1nc(C)cc(C)c1C#N,inconclusive: 95%
5,CCCSc1nc(C)c(C(C)=O)cc1C#N,inconclusive: 99%
6,CC(CC(=O)Nc1ccccc1)n1ccnc1 (stereo not given),inactive: 96%
7,CC[C@H](C)[C@H](NC(=O)c1ccc(Cl)cc1)C(=O)OCC(=O)c1ccc2c(c1)NC(=O)CO2,inconclusive: 101%
8,CC(=O)Nc1ccc(S(=O)(=O)NCC(=O)NCCc2ccc(S(N)(=O)=O)cc2)cc1,inconclusive: 94%
9,CC(C)Oc1ccccc1C1CC(=O)Nc2cc3c(cc21)OCCO3 (stereo not given),inconclusive: 104%
10,CCC(C)NC(=O)CSc1nnc(-c2ccoc2C)n1CC1CCCO1 (stereo not given),inconclusive: 95%
11,Cc1[nH]c2ccccc2c1C(=O)C(=O)NCc1cccs1,inconclusive: 88%
12,Cc1sc(NC(=S)Nc2ccc(F)cc2)c(C(N)=O)c1C,inconclusive: 95%
13,COC(=O)c1ccc(CSc2n[nH]c(=S)s2)o1,inconclusive: 98%
14,CCOc1cc(NC(=S)NCCCN2CCOCC2)c(OCC)cc1NC(=O)C1CCCCC1,inactive: 103%
15,CCOC(=O)C1(Cc2cccc(OC)c2)CCN(Cc2cccc(OC)c2O)CC1,inactive: 102%
16,CC(=O)c1ccc(NC(=O)C(C)N2CCN(C/C=C/c3ccccc3)CC2)cc1 (stereo not given),inconclusive: 564%
17,Cc1nnc(SCC(=O)NC2CC2)n1CC1CCCO1 (stereo not given),inconclusive: 100%
18,COc1ccc2nc(Nc3nc4ccc(NC(C)=O)cc4s3)sc2c1,inconclusive: 98%
19,CSc1nnc2c(n1)OC(C)=Nc1ccccc1-2,inconclusive: 93%
20,O=C(COc1ccc2oc(-c3ccccc3)cc(=O)c2c1)NCc1ccco1,inconclusive: 94%

# Arranged by length of the SMILES (falling): three of the compounds above.
row,SMILES,GTP binding activity (percent of control)
4,COc1ccccc1N(C(C)=O)c1nc(C)cc(C)c1C#N,inconclusive: 95%
17,Cc1nnc(SCC(=O)NC2CC2)n1CC1CCCO1 (stereo not given),inconclusive: 100%
19,O=C(O)CSc1ncccc1C(=O)O,inactive: 98%

# Following part.

row,SMILES,GTP binding activity (percent of control)
1,CN(C)C(=O)c1cc(C(=O)c2ccccc2Cl)c[nH]1,inactive: 100%
2,COC(=O)c1cc(NC(=O)c2ccccc2)c(=O)oc1/C=C/Nc1ccc(Oc2ccccc2)cc1,inconclusive: 311%
3,O=C(CN1C(=O)COc2ccccc21)N1CCc2ccccc21,inconclusive: 96%
4,Cc1cccc(NC(=O)COc2cccc3c2CCN(Cc2ccccc2)C3=O)c1C,inactive: 100%
5,CCS(=O)(=O)CCSC(=N)N,inactive: 104%
6,COc1ccc(Cl)cc1N(CC(=O)NCC(C)C)S(=O)(=O)c1ccc(C)c([N+](=O)[O-])c1,inconclusive: 103%
7,Cc1ccc(OCC(=O)N/N=C\c2c(C)[nH]n(-c3ccccc3)c2=O)c([N+](=O)[O-])c1,inconclusive: 97%
8,O=C(N/N=C/c1cccc([N+](=O)[O-])c1)c1ccccc1-n1cccc1,inactive: 105%
9,Cc1ccc(C)n1-c1ccc(C(=O)N2CCOCC2)cc1,inconclusive: 99%
10,CC(C)CSc1n[nH]c(=S)s1,inconclusive: 95%
11,CC1CC(C)CN(CC(=O)N2CCCc3c2c(=O)oc2ccc(OCc4ccccc4)cc32)C1 (stereo not given),inconclusive: 86%
12,Cn1nnnc1SCC(=O)Nc1ccccc1N1CCCCC1,inconclusive: 101%
13,CCOC(=O)C1CCCN(Cc2cccc(Cl)c2)C1 (stereo not given),inconclusive: 101%
14,COc1ccc(-c2cnc3c(c2)CCC3(C#N)C#N)cc1,inconclusive: 98%
15,O=C(O)C1=C[C@@H](c2ccccc2)C[C@@H](OCc2ccc(CO)cc2)O1,inactive: 101%
16,COc1ccc(-n2c(C)cc(C(=O)CN3C(=O)C(=O)N(Cc4ccccc4)C3=O)c2C)cc1,inconclusive: 86%
17,O=C(Cn1cnc2sc(-c3ccccc3)cc2c1=O)NCc1ccco1,inconclusive: 104%
18,CC(=O)Nc1ccc(NC(=O)c2ccccc2C)cc1,inactive: 102%
19,Cn1cc(Br)c(C(=O)N/N=C/c2cccc(OC3CSC3)c2)n1,inactive: 100%
20,COc1ccc(Nc2ccccc2C(=O)O)cc1,inconclusive: 116%
